Fewer than 10 of roughly 2,800 compounds were called active. Another 7% or so got no clear call; they are omitted. Calls follow the shape of the dose curve; as a rule, active = well fitted inhibition curve with a large enough effect; inconclusive = small, poorly fitted or top-dose-only effect; inactive = no such curve, though single readings can be large or run the other way. Some of the results follow.
biological target: Metallo-beta-lactamase type 2 (Klebsiella pneumoniae) (UniProt C7C422); test: qHTS to identify inhibitors of the New Delhi Metallo-beta-lactamase (NDM): Nitrocefin screen against the machine-based learning selections.; also: % of control where 0% means no effect; conditions: NDM-1 enzyme, nitrocefin hydrolysis, absorbance 485 nm; activity, negative = inhibition: at the top concentration
Method in brief: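 NDM-1 (2 nM final) in 50 mM HEPES pH 7.0, 1 uM Zn2SO4, 0.01% Tween20 was preincubated with compounds for >30 min. Nitrocefin (16.7 uM final) was read at 485 nm after 15 min, and meropenem (50 uM final) at 300 nm after 30 min.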

Chains of the proteins cited; added tags and fusions are not shown. Lines headed by an entry give the natural chain unless they say otherwise; changes in a name come on top.
UniProt C7C422: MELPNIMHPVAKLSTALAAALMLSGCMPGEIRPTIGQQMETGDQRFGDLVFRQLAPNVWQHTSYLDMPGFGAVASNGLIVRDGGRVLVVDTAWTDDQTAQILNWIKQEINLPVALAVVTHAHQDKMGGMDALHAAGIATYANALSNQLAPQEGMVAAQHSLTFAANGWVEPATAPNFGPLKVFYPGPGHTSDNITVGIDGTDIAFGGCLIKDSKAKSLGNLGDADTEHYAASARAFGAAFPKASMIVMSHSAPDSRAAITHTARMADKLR

activity, negative = inhibition, inactive:
CC1=C[C@@H](CNCCN(C)C)[C@H](C(C)C)C[C@H]1Cc1nnc(C(C)(C)C)o1 4.1% [at 57.5 µM], c1cncc(CN2CCC[C@H]2c2nc(-c3ccc(-n4ccnc4)nc3)no2)c1 -6.33% [at 57.5 µM], O=C(Cc1c[nH]c2ncc(-c3ccccc3)cc12)NC1CC1 9.86% [at 76.7 µM], Cn1cccc1C(=O)C(=O)N1CCC(O)(CN2CCOCC2)C(C)(C)C1 (centres undefined) -1.49%, COc1c(C)cccc1-c1nc(C2CCOC2)no1 (centres undefined) 0.0925%, CCCC(c1cccs1)n1cc(-c2cncnc2)nn1 (centres undefined) -2.72%, O=C(COc1ccccc1)NC[C@H]1Cn2c(-c3ccc(Cl)cc3)cnc2CO1 -19.3% [at 57.5 µM], O=C(Cc1ccccc1O)N1CCCC(CCc2c(F)cccc2F)C1 (centres undefined) -8.74%, CCS(=O)(=O)N1CCC(Cc2nc(-c3cccnc3)n[nH]2)C1 (centres undefined) 3.9%, COc1ccccc1C(O)c1nc(Nc2ccc(Cl)cc2F)n[nH]1 (centres undefined) -0.615% [at 57.5 µM], CN1CCC(C2CCN(C(=O)NC3CCCC3)C2)CC1 (centres undefined) 4.7%, C=CCC1(CO)CCCN(CCS(=O)(=O)c2ccccc2)C1 (centres undefined) 4.09%, OCC1(CC2CC2)CCCN(c2nccc(C(F)(F)F)n2)C1 (centres undefined) -0.503%, Cc1ccccc1-c1nccn2c(C3CN(Cc4ccccc4O)C3)ncc12 -0.386% [at 57.5 µM], CN(C)c1ccc(CN[C@H]2C[C@H]3C(=O)NC[C@@H](CCC(=O)N4CCC(O)CC4)N3C2)cc1 -0.133%, COc1ccc(OCc2nc(C(=O)N3CCCC(C(C)(C)O)C3)co2)cc1 (centres undefined) 7.43%, Cn1cc(-c2cnc(NC(=O)c3c[nH]c4ccccc34)c3c2CCO3)cn1 0.246% [at 57.5 µM], OC(c1ccc2c(c1)CCO2)c1nc(Nc2cccc(C(F)(F)F)c2)n[nH]1 (centres undefined) 0.833% [at 57.5 µM], O=C1CCCCCN1CC(=O)N1CCCC(OCc2ccccc2)C1 (centres undefined) -3.46%, COc1ccc(N2C(=O)[C@@H]3[C@@H](CCN3C(=O)C(C)(C)C)N(Cc3ccccc3)C2=O)cc1 0.894% [at 57.5 µM], O=C1[C@@H]2[C@@H](CCN2C(=O)NC2CCCCC2)N(Cc2cccs2)C(=O)N1c1cccc(F)c1 1.63%, COCCNS(=O)(=O)c1cc(C(=O)O)cc(-c2cccc3cccnc23)c1 3.02%, O=C(NC[C@H]1OC[C@@H](NCc2ccccc2O)[C@@H]1O)Nc1ccccc1 -1.45% [at 57.5 µM], C[C@H]1[C@@H]2[C@@H](O)C([C@H](C)C(=O)NCc3ccccn3)CC[C@@]2(C)CC[C@@H]1NC(=O)c1ccc(C#N)cc1 (some centres undefined) 2.85%, O=C1COc2ccc(-c3ccsc3)nc2CN1 0.133% [at 76.7 µM], Cc1noc([C@@H](C)NC(=O)Cc2ccccc2)c1C(=O)O -1.32% [at 76.7 µM], COc1ccc(-c2noc(C(=O)NC3CCC3)c2[C@H](C)O)cc1 0.238% [at 57.5 µM], CC(C)NC(=O)N[C@H]1CCN2C(=O)c3cc(-c4ccc(F)cc4F)ccc3NC(=O)[C@H]12 -2.13% [at 57.5 µM], CC(=O)c1sccc1-c1cc(NCc2ccccn2)nc2[nH]ccc12 4.34%, CC1=C[C@@H](CNC(=O)COc2ccccc2)[C@H](C(C)C)C[C@H]1Cc1nc2ccncc2[nH]1 -7.2% [at 57.5 µM], O=C(NCc1nnc2ccc(-c3ccc(F)cc3)nn12)c1ccoc1 -0.325%, O=C(C1CC2(CCNCC2)CN1)N1CCC(c2nc3ccccc3[nH]2)CC1 (centres undefined) 9.6%, Nc1nc(CCC(=O)N2CCn3nc(C(O)c4ccccc4)cc3C2)cs1 (centres undefined) 5.85%, COCCN1C(=O)CO[C@H]2CN(C(=O)c3ccc(F)cc3)C[C@H]21 -1.8% [at 57.5 µM], COc1ccc(NC(=O)Cn2cccc2-c2nc(-c3ccccc3)no2)cc1 5.31%, O=C(Cc1ccc(F)cc1)N1CCc2nc(C3CC3)nc(-c3ccc(Cl)cc3)c2C1 -2.03%, Cn1nc(C2CCN(C(=O)c3cnccn3)CC2)c2c1CCOC2 -0.775%, COCCNc1ncc(-c2cccc(O)c2)c2c1OCC2 0.2% [at 76.7 µM], Oc1ccccc1CN1CCNc2cnc(OCc3cccnc3)cc2C1 4.53% [at 57.5 µM], COCCNC(=O)[C@@H]1CCC[C@@H](NC(=O)NC2(c3ccccc3)CCOCC2)CN(C)C(=O)C1 1.22%, CCN(CC)C(=O)[C@@H]1CCC[C@@H](NC(=O)c2ccc(C#N)cc2)CN(C)C(=O)C1 2.44% [at 57.5 µM], COc1ccc(CNC(=O)CC[C@H]2CNC(=O)[C@@H]3[C@@H](CCN3Cc3ncc[nH]3)N2C)cc1 -2.57%, O=C(N[C@H]1CCN2C(=O)c3cc(-c4ccc5c(c4)OCO5)ccc3NC(=O)[C@H]12)C1CCCC1 -0.0308%, COc1ccc(CCCNC(=O)c2ccc(N3CCC(N(C)C)C3)nc2)cc1 (centres undefined) -9.19%, Cn1c(CNCC2(COc3cccnc3)C[C@@H](O)[C@@H](O)C2)nc2ccccc21 (some centres undefined) -6.67%, COCCNC(=O)[C@H]1CCC[C@H]1NC(=O)c1ccc(OC)cc1 -13.1%, COc1cccc(CN[C@@H]2CCC[C@@H](C(=O)NCc3cc(C)on3)CC(=O)N(C)C2)c1 -0.652% [at 57.5 µM], CC(=O)NC1(C)CN(Cc2ccc(-c3cccc(C(F)(F)F)c3)nc2)C1 -1.89% [at 57.5 µM], COC(=O)[C@H](Cc1ccc(OC)cc1)NC(=O)[C@H]1CN(C(=O)c2ccc(N(C)C)cc2)CCN1C(=O)C1CCCCC1 -2.54%

Reference: PubChem BioAssay AID1794844 (National Center for Advancing Translational Sciences (NCATS), 2023)
